The values below come from PMC3270039.

Chains of the proteins cited; added tags and fusions are not shown. Lines headed by an entry give the natural chain unless they say otherwise; changes in a name come on top.
UniProt Q04207: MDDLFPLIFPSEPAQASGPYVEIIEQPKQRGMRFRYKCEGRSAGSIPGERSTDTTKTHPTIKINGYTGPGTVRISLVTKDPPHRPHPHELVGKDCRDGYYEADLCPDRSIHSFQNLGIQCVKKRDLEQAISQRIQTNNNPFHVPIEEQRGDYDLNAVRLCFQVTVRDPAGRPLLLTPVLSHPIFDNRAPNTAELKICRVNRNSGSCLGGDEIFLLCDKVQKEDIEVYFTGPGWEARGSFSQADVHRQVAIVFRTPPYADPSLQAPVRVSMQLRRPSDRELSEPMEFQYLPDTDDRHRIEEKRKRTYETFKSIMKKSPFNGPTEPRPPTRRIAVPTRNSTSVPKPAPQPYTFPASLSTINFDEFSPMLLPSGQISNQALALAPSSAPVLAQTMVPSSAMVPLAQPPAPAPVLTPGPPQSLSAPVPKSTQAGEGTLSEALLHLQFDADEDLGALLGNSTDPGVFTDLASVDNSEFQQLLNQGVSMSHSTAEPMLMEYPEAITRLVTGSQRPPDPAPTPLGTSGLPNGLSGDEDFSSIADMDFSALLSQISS
UniProt O75582: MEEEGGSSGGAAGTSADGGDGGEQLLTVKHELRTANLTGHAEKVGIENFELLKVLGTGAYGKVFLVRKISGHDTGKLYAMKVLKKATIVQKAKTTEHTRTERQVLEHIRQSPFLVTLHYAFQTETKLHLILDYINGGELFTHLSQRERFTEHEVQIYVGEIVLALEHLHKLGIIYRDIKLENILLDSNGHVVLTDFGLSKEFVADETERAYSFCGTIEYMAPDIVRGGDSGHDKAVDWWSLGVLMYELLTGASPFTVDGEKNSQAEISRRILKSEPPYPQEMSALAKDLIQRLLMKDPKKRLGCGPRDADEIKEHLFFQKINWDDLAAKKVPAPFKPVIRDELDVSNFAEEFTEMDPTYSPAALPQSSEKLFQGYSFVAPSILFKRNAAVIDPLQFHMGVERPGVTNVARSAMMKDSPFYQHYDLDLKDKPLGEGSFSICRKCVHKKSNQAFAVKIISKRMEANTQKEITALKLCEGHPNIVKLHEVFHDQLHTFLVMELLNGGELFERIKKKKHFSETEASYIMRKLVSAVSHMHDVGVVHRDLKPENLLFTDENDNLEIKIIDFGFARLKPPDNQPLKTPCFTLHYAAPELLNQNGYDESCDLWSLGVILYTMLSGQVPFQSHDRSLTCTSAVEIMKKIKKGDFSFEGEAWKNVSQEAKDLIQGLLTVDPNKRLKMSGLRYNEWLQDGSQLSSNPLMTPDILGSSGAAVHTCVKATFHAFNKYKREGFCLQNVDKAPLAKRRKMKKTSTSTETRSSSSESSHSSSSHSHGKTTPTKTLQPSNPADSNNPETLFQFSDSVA
UniProt Q8C050: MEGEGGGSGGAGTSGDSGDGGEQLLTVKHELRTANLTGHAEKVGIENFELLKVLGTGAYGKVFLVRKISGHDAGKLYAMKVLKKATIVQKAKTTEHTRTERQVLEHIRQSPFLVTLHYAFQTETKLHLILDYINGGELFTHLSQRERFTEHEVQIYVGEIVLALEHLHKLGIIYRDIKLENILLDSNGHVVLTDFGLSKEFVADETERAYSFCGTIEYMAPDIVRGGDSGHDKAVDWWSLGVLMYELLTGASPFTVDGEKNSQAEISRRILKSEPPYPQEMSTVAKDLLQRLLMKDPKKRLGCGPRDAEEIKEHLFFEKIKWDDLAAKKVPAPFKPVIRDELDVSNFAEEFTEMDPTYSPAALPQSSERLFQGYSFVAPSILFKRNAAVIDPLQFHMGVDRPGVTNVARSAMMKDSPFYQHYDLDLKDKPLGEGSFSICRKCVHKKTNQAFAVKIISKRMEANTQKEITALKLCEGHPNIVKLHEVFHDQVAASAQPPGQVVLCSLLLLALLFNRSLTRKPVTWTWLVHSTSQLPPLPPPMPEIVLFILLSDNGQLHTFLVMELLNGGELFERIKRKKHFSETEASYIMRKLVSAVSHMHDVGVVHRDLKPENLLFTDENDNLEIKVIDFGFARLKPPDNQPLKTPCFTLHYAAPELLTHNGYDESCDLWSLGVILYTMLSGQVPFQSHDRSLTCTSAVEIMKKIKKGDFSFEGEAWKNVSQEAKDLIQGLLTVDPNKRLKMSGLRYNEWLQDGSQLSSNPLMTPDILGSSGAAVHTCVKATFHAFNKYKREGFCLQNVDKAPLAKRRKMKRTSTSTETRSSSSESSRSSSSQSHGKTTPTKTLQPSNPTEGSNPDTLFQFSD
UniProt Q04206: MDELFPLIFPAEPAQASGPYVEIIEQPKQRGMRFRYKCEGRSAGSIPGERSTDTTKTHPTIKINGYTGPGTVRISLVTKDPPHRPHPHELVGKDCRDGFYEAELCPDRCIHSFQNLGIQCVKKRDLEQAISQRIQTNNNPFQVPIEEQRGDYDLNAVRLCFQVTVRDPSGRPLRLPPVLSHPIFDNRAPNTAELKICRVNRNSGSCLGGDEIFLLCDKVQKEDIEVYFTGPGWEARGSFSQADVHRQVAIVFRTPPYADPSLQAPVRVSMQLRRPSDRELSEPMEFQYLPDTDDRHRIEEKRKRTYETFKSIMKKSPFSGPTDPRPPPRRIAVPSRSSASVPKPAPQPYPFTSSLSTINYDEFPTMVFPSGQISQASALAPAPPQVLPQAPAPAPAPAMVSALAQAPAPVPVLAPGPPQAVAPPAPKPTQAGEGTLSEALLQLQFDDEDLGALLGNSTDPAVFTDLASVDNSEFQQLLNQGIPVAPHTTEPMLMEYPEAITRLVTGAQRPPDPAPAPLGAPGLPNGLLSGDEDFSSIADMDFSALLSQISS
UniProt Q09472: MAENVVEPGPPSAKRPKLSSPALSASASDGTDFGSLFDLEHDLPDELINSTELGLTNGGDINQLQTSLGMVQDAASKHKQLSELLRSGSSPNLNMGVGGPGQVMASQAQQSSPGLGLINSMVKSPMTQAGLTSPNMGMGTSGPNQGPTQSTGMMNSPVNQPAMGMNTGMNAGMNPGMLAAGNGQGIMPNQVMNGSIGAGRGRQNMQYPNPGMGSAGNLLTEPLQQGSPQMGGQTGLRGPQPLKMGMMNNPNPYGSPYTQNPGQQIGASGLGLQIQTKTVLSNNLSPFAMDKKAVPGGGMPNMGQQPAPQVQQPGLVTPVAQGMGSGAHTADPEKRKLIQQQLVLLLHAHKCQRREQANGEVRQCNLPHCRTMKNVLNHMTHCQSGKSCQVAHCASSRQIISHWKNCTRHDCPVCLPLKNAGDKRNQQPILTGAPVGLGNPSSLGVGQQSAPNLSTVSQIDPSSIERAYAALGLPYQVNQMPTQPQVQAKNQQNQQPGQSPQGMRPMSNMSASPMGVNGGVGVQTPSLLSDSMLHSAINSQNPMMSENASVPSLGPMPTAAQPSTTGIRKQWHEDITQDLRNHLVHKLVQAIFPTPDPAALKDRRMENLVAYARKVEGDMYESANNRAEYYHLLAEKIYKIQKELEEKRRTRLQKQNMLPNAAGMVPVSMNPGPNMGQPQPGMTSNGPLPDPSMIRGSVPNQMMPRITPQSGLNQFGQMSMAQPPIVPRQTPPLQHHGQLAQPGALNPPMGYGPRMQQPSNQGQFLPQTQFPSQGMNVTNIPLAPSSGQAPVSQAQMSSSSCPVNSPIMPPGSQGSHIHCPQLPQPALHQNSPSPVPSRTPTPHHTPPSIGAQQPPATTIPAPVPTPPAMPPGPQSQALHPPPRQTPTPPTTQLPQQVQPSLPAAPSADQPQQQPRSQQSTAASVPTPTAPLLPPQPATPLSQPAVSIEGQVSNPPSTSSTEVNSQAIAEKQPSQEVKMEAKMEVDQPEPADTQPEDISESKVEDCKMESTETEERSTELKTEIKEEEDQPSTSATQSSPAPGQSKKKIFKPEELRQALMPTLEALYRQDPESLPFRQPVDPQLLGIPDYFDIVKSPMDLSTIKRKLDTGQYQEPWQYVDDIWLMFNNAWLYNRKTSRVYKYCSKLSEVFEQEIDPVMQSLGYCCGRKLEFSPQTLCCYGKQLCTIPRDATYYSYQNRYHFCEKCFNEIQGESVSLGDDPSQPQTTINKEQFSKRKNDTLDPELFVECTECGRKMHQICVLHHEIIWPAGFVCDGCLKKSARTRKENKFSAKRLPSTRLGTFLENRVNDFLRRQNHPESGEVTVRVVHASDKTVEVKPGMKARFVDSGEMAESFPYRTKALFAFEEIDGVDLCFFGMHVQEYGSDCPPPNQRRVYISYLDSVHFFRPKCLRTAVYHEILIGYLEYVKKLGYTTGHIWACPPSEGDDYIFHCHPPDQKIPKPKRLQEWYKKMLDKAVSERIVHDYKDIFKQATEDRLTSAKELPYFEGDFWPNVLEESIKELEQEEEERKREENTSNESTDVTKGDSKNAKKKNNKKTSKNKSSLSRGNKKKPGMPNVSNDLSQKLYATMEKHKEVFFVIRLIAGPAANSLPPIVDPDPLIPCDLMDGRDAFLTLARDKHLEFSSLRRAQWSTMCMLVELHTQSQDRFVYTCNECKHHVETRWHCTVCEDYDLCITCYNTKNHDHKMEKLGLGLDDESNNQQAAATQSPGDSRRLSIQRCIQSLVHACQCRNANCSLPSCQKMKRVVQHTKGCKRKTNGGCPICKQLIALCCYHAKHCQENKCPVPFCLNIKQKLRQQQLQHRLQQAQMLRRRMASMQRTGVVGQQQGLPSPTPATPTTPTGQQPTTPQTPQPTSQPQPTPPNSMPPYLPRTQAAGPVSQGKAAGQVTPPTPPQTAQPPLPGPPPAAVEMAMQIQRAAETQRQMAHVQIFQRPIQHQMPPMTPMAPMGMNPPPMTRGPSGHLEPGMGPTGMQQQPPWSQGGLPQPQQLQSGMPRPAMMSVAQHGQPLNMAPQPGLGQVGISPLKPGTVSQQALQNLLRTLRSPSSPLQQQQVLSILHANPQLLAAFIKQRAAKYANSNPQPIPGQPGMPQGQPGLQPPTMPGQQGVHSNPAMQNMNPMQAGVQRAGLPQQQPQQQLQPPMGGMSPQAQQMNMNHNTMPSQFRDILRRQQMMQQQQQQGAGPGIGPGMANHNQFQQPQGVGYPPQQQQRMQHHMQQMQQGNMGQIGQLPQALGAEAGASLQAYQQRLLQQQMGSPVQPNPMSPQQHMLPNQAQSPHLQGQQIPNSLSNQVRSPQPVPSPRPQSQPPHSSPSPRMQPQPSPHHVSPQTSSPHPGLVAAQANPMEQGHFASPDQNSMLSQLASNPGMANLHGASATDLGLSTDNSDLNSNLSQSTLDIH

Results are given in words; binding and its absence hold for the method and conditions named. Binding seen in cells or lysates may run through a third protein. Some entries that bind do so weakly or less than the wild type.

The target of assay [1] is RelA/p65 (endogenous, mouse lung) (mouse (endogenous in C57BL/6J lung)) (UniProt Q04207). The assay can be described thus: co-IP; endogenous proteins; whole lung tissue extract (500 µg) of C57BL/6J mice exposed to air or cigarette smoke (300 mg/m^3 TPM, 3 days); immunoprecipitation with anti-MSK1 or anti-RelA/p65; immunoblot. A general note: In western blotting, separated proteins are transferred to a membrane and probed.

Assay [2] addresses FLAG-MSK1 wild-type (mitogen- and stress-activated kinase 1, from pCMV-FLAG-MSK1 wild-type) (UniProt O75582). The assay can be described thus: co-IP; anti-flag M2 affinity gel on whole cell lysates (250–500 µg) of transiently transfected H292 cells treated with or without CSE (1%) for 1 h; immunoblot with anti-flag and anti-RelA/p65.
Assay [3] addresses FLAG-MSK1 D195A (N-terminal kinase-dead mutant, from pCMV-FLAG-MSK1 D195A) (UniProt O75582). The assay is described as above.
Assay [4] addresses Mitogen- and stress-activated kinase 1 (MSK1), native, H292 cells (human (endogenous in H292)) (UniProt O75582). The assay is described as follows: co-IP; endogenous proteins; H292 nuclear extract (1000 µg), cells treated 1 h with or without CSE (2%), TNFα (10 ng/ml) as positive control; immunoprecipitation with anti-MSK1 or anti-RelA/p65 and protein A/G agarose; immunoblot.

For “MSK1 (endogenous, mouse lung) (from UniProt Q8C050 1-863) (enzyme)”, the binding entry in assay [1] is listed as “binds”.
Turning to “NF-κB RelA/p65 (endogenous, H292 cells) (from UniProt Q04206 1-551)”, the binding result in assay [2], in assay [3] and in assay [4] was “binds” in each case.
With “p300 (coactivator, endogenous, H292 cells) (from UniProt Q09472 1-2414)”, the binding entry in assay [4] was “binds”.
